Test results reported in PubChem BioAssay (NCATS).
Inconclusive results, whose numbers are uncertain, are shown with a selection of clear calls. For part of these data: A potency beside an inconclusive call is a rough fit, not a confirmed value. Active and inactive are the calls of the source. Unless noted, the call rests on the fitted dose curve; in most records, active means well fitted activation curve with a large enough effect in the main read-out, with a control signal flat (not every such curve was filed as active); inconclusive means small, poorly fitted or top-dose-only effect, or effect the other way, or a change in a side signal; inactive means flat fitted curve, though single readings scatter.

Protein sequences, listed by entry. Tags and fused reporters are not part of them. Lines headed by an entry give the natural chain unless they say otherwise; changes in a name come on top.
UniProt Q07343: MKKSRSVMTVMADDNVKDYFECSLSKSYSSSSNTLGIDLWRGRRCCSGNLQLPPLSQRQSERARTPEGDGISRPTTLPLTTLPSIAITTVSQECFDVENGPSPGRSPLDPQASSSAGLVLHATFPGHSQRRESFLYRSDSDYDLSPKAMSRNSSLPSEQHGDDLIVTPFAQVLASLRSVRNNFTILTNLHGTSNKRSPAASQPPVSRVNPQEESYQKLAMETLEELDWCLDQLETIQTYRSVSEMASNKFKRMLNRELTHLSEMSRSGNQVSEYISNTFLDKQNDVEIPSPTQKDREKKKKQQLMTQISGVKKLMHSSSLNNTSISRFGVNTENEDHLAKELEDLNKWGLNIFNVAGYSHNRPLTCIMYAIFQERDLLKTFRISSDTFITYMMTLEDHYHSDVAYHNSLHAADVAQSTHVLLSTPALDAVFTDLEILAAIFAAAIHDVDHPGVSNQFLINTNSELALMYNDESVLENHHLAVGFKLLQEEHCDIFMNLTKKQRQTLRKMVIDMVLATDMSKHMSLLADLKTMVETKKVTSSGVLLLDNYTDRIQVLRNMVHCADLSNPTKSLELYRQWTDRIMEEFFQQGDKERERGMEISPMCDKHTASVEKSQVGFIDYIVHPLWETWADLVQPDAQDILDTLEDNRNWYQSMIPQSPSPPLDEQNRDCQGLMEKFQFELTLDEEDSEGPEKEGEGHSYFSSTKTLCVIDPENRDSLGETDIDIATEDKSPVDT

system: not listed separately; experiment: Stat Signaling Pathway (AID 446; active means well fitted curve in either direction with a large enough effect, not every such curve was filed as active;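 further: ME-180 cervical cancer cells given 40 pM IL-6 alongside compound; SIE-controlled beta-lactamase reporter measured as 460/530 nm FRET emission ratio; on the % scale 0 is the no-effect control and ±100 the full control effect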); conditions: ME-180 (cervical carcinoma) SIE beta-lactamase reporter, IL-6 stimulated, 5 h; at 7.69 µM (top of the series) unless noted
Procedure, shortened: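 Normalization used AC90 stimulation (300 pM IL-6) and AC90 inhibition (125 nM pan-JAK inhibitor at 40 pM IL-6). The underlying signal is SIE-driven beta-lactamase in ME-180 cells after 5 h IL-6 exposure with compound.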

activity, negative = inhibition, inconclusive:
CCNc1ncc2nc(-c3cc(F)cc(F)c3)c(=O)n(CCOC)c2n1 68.5% [activator]
Cc1noc(C)c1-c1ccc2ncnc(NCc3cccs3)c2c1 -73% [inhibitor]
Cc1noc(C)c1-c1ccc2ncnc(NCc3cccnc3)c2c1 -51.7% [inhibitor]
CN(C)c1ncc2nc(-c3cccs3)c(=O)n(Cc3cccs3)c2n1 62.1% [activator]

activity, negative = inhibition, inactive:
FC(F)(F)c1ccccc1-c1nccc(-n2ccnc2)n1 0.859%

target: Mitogen-activated protein kinase 10 (Mus musculus) (UniProt Q61831); experiment: JNK3 AlphaScreen Assay (AID 530; active means well fitted curve in either direction with a large enough effect, not every such curve was filed as active;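 further: kinase came from lysate of stimulated human HepG2 cells; signal reports phosphorylation of biotinylated GST-cJun 1-79 at Ser73 with 10 µM ATP; on the % scale 0 is the no-effect control and ±100 the full control effect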); conditions: JNK3 lysate, c-Jun phosphorylation; activity change, negative = inhibition: at 57.1 µM (top of the series)
Procedure, shortened: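 Kinase buffer: 20 mM Tris-HCl pH 7.6, 10 mM MgCl2, 1 mM DTT, 0.1 mM Na3VO4, 0.01% Tween-20; ATP 10 uM. Substrate biotin-GST-cJun(1-79), enzyme from activated HepG2 lysates. Detection by Ser73 phospho-antibody AlphaScreen.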

Potency, inactive:
COc1ncc2nc(-c3ccc(F)cc3)c(=O)n(Cc3cccs3)c2n1
O=c1cnc2cnc(Oc3cccc(Cl)c3)nc2n1CCc1ccccc1
Cc1cnc(CNc2ncncc2-c2cccnc2)cn1
CS(=O)(=O)Nc1cccc(-c2ccc3ncnc(NCCN4CCOCC4)c3c2)c1
COCCn1c(=O)cnc2cnc(N3CCN(C)CC3)nc21

target: 3',5'-cyclic-AMP phosphodiesterase 4B (Homo sapiens) (UniProt Q07343); experiment: qHTS Assay for Inhibitors of PDE-IV (AID 607); conditions: HEK293 ACTOne CNG channel cells, membrane potential fluorescence; activation (PDE inhibition): at 22.9 µM (top of the series); further: potency means the concentration at half of the fitted maximal effect; on activation (PDE inhibition): % of control where 0% means no effect
Procedure, shortened: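 HEK293 ACTOne cells with CNG channel (1000/well), endogenous PDE4; membrane potential dye, compounds up to 22.9 uM final. Fluorescence Ex 535/Em 590; RO 20-1724 (100 uM final) as reference.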

Potency, inconclusive:
COc1ccc(CNc2ncnc3ccc(-c4cccc(NS(C)(=O)=O)c4)cc23)c(OC)c1 10 µM [rising, partial curve]
CCNc1ncc2nc(-c3cc(F)cc(F)c3)c(=O)n(CCOC)c2n1 10 µM [activator, partial curve]
COc1cccc(-c2nccc(NCCc3c[nH]c4ccc(OC)cc34)n2)c1 1.58 µM [inhibitor, single point]
COc1cccc(-c2ccc3ncnc(N4CCOCC4)c3c2)c1 12.6 µM [activator, partial curve]
COc1cccc(-c2nccc(NCc3ccccc3)n2)c1 10 µM [activator, partial curve]
N#Cc1cccc(-c2nccc(NCc3cccnc3)n2)c1 7.94 µM [activator, partial curve]
CN(C)c1ncnc2ccc(-c3ccoc3)cc12 10 µM [activator, partial curve]
Cc1noc(C)c1-c1ccc2ncnc(NCc3cccs3)c2c1 2 µM [activator, partial curve]
FC(F)(F)c1ccccc1-c1ccc2ncnc(NC3CC3)c2c1 10 µM [activator, partial curve]
CC(=O)NCCNc1ncnc2ccc(-c3ccccc3Cl)cc12 12.6 µM [activator, partial curve]
COc1cccc(Cn2c(=O)cnc3cncnc32)c1 7.94 µM [activator, single point]
FC(F)(F)c1ccccc1-c1nccc(-n2ccnc2)n1 12.6 µM [activator, partial curve, poor fit]
c1cncc(-c2nc(NCc3cccs3)c3ccccc3n2)c1 10 µM [activator, partial curve]

Fetched one by one from the entries so far, 2 records:
Potency, inconclusive:
COc1cccc(-c2nccc(NCCc3c[nH]c4ccc(OC)cc34)n2)c1 1.58 µM [inhibitor, single point]
c1cncc(-c2nc(NCc3cccs3)c3ccccc3n2)c1 10 µM [activator, partial curve]

Next part:

Potency, inactive:
Cc1ccccc1-c1ccc2ncnc(NCc3cccnc3)c2c1
CN(C)c1ccc(-c2ccc3ncnc(N(C)C)c3c2)cc1
Cc1cnc(CNc2ncncc2-c2cccnc2)cn1
CS(=O)(=O)Nc1cccc(-c2ccc3ncnc(NCCN4CCOCC4)c3c2)c1
